The values below come from paper PMC12003009.

No constants are given. Whether binding was seen depends on the method and setting. Binding seen in cells or lysates may run through a third protein. A result given as binding can be weak or reduced; the word gives no strength.

The target of assay [1] is Flag-Bcl3 (B cell leukemia/lymphoma 3). In words: co-IP; Huh7 cells and 293T cells transfected with Flag-Bcl3 or Nrf2 plasmid, lysed in NP40 buffer; Flag M2 beads or antibody with protein A/G Sepharose beads, 2 hours at room temperature or overnight at 4 °C; 5 washes with NP40 buffer; Western blotting. A general note: Immunoblotting shows a protein as a band on a membrane.

In assay [2] the target is Nrf2 (nuclear factor erythroid 2 like 2), overexpressed from plasmid. The assay is described as above.

B1: endogenous Nrf2 (nuclear factor erythroid 2 like 2) of Huh7 / HEK293T cells (protein, UniProt Q16236 1-605)
chain: MMDLELPPPGLPSQQDMDLIDILWRQDIDLGVSREVFDFSQRRKEYELEKQKKLEKERQEQLQKEQEKAFFAQLQLDEETGEFLPIQPAQHIQSETSGSANYSQVAHIPKSDALYFDDCMQLLAQTFPFVDDNEVSSATFQSLVPDIPGHIESPVFIATNQAQSPETSVAQVAPVDLDGMQQDIEQVWEELLSIPELQCLNIENDKLVETTMVPSPEAKLTEVDNYHFYSSIPSMEKEVGNCSPHFLNAFEDSFSSILSTEDPNQLTVNSLNSDATVNTDFGDEFYSAFIAEPSISNSMPSPATLSHSLSELLNGPIDVSDLSLCKAFNQNHPESTAEFNDSDSGISLNTSPSVASPEHSVESSSYGDTLLGLSDSEVEELDSAPGSVKQNGPKTPVHSSGDMVQPLSPSQGQSTHVHDAQCENTPEKELPVSPGHRKTPFTKDKHSSRLEAHLTRDELRAKALHIPFPVEKIINLPVVDFNEMMSKEQFNEAQLALIRDIRRRGKNKVAAQNCRKRKLENIVELEQDLDHLKDEKEKLLKEKGENDKSLHLLKKQLSTLYLEVFSMLRDEDGKPYSPSEYSLQQTRDGNVFLVPKSKKPDVKKN
Regarding B1, the binding result in assay [1] is “binds”.

B2: endogenous Bcl3 (B cell leukemia/lymphoma 3) of Huh7 / HEK293T cells (protein, UniProt P20749 1-454)
chain: MPRCPAGAMDEGPVDLRTRPKAAGLPGAALPLRKRPLRAPSPEPAAPRGAAGLVVPLDPLRGGCDLPAVPGPPHGLARPEALYYPGALLPLYPTRAMGSPFPLVNLPTPLYPMMCPMEHPLSADIAMATRADEDGDTPLHIAVVQGNLPAVHRLVNLFQQGGRELDIYNNLRQTPLHLAVITTLPSVVRLLVTAGASPMALDRHGQTAAHLACEHRSPTCLRALLDSAAPGTLDLEARNYDGLTALHVAVNTECQETVQLLLERGADIDAVDIKSGRSPLIHAVENNSLSMVQLLLQHGANVNAQMYSGSSALHSASGRGLLPLVRTLVRSGADSSLKNCHNDTPLMVARSRRVIDILRGKATRPASTSQPDPSPDRSANTSPESSSRLSSNGLLSASPSSSPSQSPPRDPPGFPMAPPNFFLPSPSPPAFLPFAGVLRGPGRPVPPSPAPGGS
As to B2, the binding result in assay [2] is on record as “binds”.
